This is an account of results in PubChem BioAssay AID2685 (National Center for Advancing Translational Sciences (NCATS), 2010).

This assay in a line: qHTS Assay for Lipid Storage Modulators in Drosophila S3 Cells.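 On cell number change: cells counted by Cell Tracker Red CMTPX staining in the red channel.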 As to conditions: BODIPY lipid droplet fluorescence, 18-24 h; for cell number change: measured here: cell count max response, cells fed with added oleic acid. In short, it runs like this:
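Drosophila S3 cells got compounds at several concentrations plus oleic acid (400 uM solution). Laser-scanning cytometry with 488 nm excitation read lipid droplets at 500-530 nm and cells at 575-640 nm. Percent activity was relative to 20 uM Triacsin C.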
A general note: Quantitative high-throughput screening tests each substance at several concentrations.

Where [1] appears, read: measured here: cell number channel AC50, cells fed with added oleic acid.
[2] abbreviates: measured here: lipid fluorescence (Fed channel) AC50, cells fed with added oleic acid.

This is one part of the list. The main result of the screen is listed elsewhere. These columns were measured beside it and carry no call. Compounds called inactive in the main read-out are mostly missing here. Potencies come from curve fits of mixed quality, noted in brackets.

Turning to `O=C1C=C(c2ccc(CO)cc2)C[C@@H](c2ccc3c(c2)OCO3)C1`, the cell number change was -19.2%.

`COc1ccc(NC(=O)CSCC(=O)Oc2c(OC)cccc2OC)cc1`: the cell number change stood at 13.5%.

On to `C=CCn1c(C(CC(C)C)CC(C)O)n[nH]c1=S` (configuration not stated), for which the cell number change turned out to be 95.9%. For the same compound, the AC50 under setting [1] is 16.4 µM [rising, single point]. Also, the AC50 under setting [2] is 29.1 µM [rising, single point].

For the compound `Cc1n[nH]c(=S)n1/N=C/c1ccccc1OCc1ccc(Cl)cc1Cl`, the cell number change is -66.1%. Further, the AC50 under setting [1] was 16.4 µM [falling, partial curve]. Under setting [2], the AC50 was 14.6 µM [falling, single point].

As to `COc1ccccc1C(=O)Nc1nnc(S(=O)(=O)N2CCCCC2)s1`, the cell number change is 0.597%. Moreover, under setting [2], the concentration at half-maximal activity (AC50) is 0.58 µM [falling, single point].

On to `O=C(NCC1CCCO1)c1cccc(N2C(=O)C3C4C=CC(C4)C3C2=O)c1` (configuration not stated), for which the cell number change worked out at 23.9%. Further, the AC50 under setting [1] is 0.651 µM [falling, single point]. Moreover, the AC50 under setting [2] is 0.651 µM [falling, single point].

`COc1cc2oc(=O)c3c(c2cc1OCC(=O)c1c(C)n(C)c2ccccc12)CCCC3`: the concentration at half-maximal activity (AC50) is, setting by setting: under setting [1], 1.46 µM [rising, partial curve]; under setting [2], 1.64 µM [rising, full curve].

Regarding `FC(F)Oc1ccc(-c2csc(=Nc3cccnc3)n2CC2CCCO2)cc1` (configuration not stated), the cell number change was determined as 18.5%. For the same compound, the AC50 under setting [1] is 0.0517 µM [rising, full curve, poor fit]. Also, the AC50 under setting [2] is 18.4 µM [falling, single point].

As for `COc1ccc(N2CC(C(=O)Nc3ccccc3C(=O)NCc3ccco3)CC2=O)cc1` (configuration not stated), under setting [2], the AC50 is 0.13 µM [rising, full curve, poor fit].

On to `Cc1ccc[n+](CC(=O)c2ccccc2)c1`, for which the cell number change was 29.4%. Also, under setting [2], the AC50 was 5.8 µM [rising, partial curve, poor fit].

Regarding `CCCSc1nc(C)nc2c1c(=O)n(C)c(=O)n2C`, the cell number change amounted to 55.5%. In addition, the AC50 under setting [1] was 20.6 µM [rising, single point]. The AC50 under setting [2] was 6.51 µM [rising, single point].

Take `Cc1c(OCC(=O)NCCCN2CCOCC2)ccc2c3c(c(=O)oc12)CCCC3`: the cell number change turned out to be 14.1%. Also, the AC50 under setting [1] is 0.0103 µM [rising, full curve, poor fit]. Under setting [2], the AC50 was 6.51 µM [rising, single point].

Take `Cc1ccn(C(CC(=O)c2ccc(Br)cc2)C(=O)O)n1` (configuration not stated): the cell number change is -33.1%. Under setting [1], the AC50 was 8.2 µM [falling, partial curve]. In addition, the AC50 under setting [2] is 18.4 µM [falling, single point].

For `CC(=O)c1ccc(N2CCN(C(=O)C3CCN(C(=O)Nc4ccccc4)CC3)CC2)cc1`, the cell number change is -13.5%. In addition, the AC50 under setting [1] was 0.731 µM [falling, single point].

In the case of `O=C(NCc1ccccc1F)c1cc(=O)[nH]c2ccccc12`, the cell number change is 13.9%.

Regarding `CN1CCc2c(sc(NC(=O)C3CCCCC3)c2C(N)=O)C1`, the cell number change stood at 20.2%. For the same compound, under setting [1], the AC50 is 6.51 µM [rising, partial curve, poor fit]. The AC50 under setting [2] is 6.51 µM [rising, single point].

For the compound `COc1ccccc1NC(=O)CSc1ncc(CO)n1Cc1ccc(F)cc1`, the cell number change worked out at 5.38%. Moreover, the AC50 under setting [2] was 10.3 µM [rising, partial curve].

With `CCn1cc(C(=O)Nc2ncccc2O)c(=O)c2cc(F)c(N3CCN(C(=O)c4ccco4)CC3)cc21`, the cell number change was -24.1%. The half-maximal activity concentration (AC50) under setting [1] is 0.411 µM [falling, full curve, poor fit]. The AC50 under setting [2] is 0.092 µM [falling, full curve, poor fit].

On to `COc1ccc(/C=C/C2=Nc3ccccc3NC(C)(C)C2)cc1OC`, for which the cell number change was 4.11%.

On to `CC(C)(C)c1ccc(C(=O)NC(=S)NNC(=O)COc2ccccc2)cc1`, for which the cell number change was -16.1%.

In the case of `Cc1occc1C(=O)NC(C)C(C)(C)C` (configuration not stated), the cell number change was -1.72%. Further, the AC50 under setting [2] is 2.06 µM [falling, full curve].

`O=C(CCCCl)Nc1nc(-c2ccc3c(c2)OCCO3)cs1`: the AC50 was 6.51 µM [rising, single point] under setting [1] and 6.51 µM [rising, single point] under setting [2].

`CCC(Sc1nc(C)cc(=O)[nH]1)C(=O)Nc1nnc(C)s1` (configuration not stated): the cell number change was -33.4%. Moreover, the AC50 under setting [1] is 5.17 µM [falling, full curve, poor fit]. Also, the AC50 under setting [2] is 0.651 µM [falling, partial curve, poor fit].

With `CCOCCCn1c(SCc2nc3ccccc3s2)nc2ccccc2c1=O`, the AC50 under setting [2] was 0.259 µM [falling, partial curve, poor fit].

Consider `O=C(Cc1ccc(F)cc1)Nc1nc(-c2ccc(F)cc2)cs1`, for which the cell number change was determined as 54.8%. In addition, the AC50 under setting [1] was 29.1 µM [rising, single point].

On to `O=C(COc1ccc(Cl)cc1)NCc1ccccc1`, for which the cell number change came out at 16.8%. In addition, under setting [2], the AC50 is 29.1 µM [rising, single point].

Turning to `COc1ccc(NC(=O)c2cc3ccccc3[nH]2)cc1`, the cell number change was -19.8%.

In the case of `NNC(=O)Cn1c(-c2nonc2N)nc2ccccc21`, the cell number change was 43.4%. The AC50 under setting [1] was 23.1 µM [rising, single point]. Besides, under setting [2], the AC50 was 23.1 µM [rising, single point].

As to `O=C(c1ccc2c(=O)n3c(nc2c1)CCCCC3)N1CCN(c2ccccc2)CC1`, the cell number change stood at 31.4%. The AC50 under setting [1] is 9.2 µM [rising, partial curve]. The AC50 under setting [2] is 6.51 µM [rising, partial curve].

Take `CN(c1ccccc1)S(=O)(=O)c1ccc(NC(=O)C2CC2)cc1`: the cell number change is -6.93%. Further, under setting [2], the AC50 is 29.1 µM [falling, single point].

For the compound `CN(C)C(=O)c1c(NC(=O)c2ccccc2)sc2c1CCC2`, the cell number change was 0.549%. Also, the AC50 under setting [2] is 29.1 µM [falling, single point].

As to `Nc1ccn(CC(=O)NCc2ccccc2)c(=O)n1`, the cell number change was -25.2%. For the same compound, under setting [2], the AC50 was 14.6 µM [falling, single point].

In the case of `COc1ccc(Cl)cc1NC(=O)CN1CCC(n2nnc3cc(F)ccc32)CC1`, the cell number change is -0.394%. The AC50 under setting [1] was 6.51 µM [rising, single point]. In addition, the AC50 under setting [2] is 0.58 µM [rising, partial curve].

With `CNC(=O)c1c(C)noc1C`, the cell number change amounted to 1.36%. Further, the AC50 under setting [2] was 0.731 µM [falling, full curve].

For `COc1ccc(N(CC(O)CN2CCCCC2)S(=O)(=O)c2ccc(C)cc2)cc1` (configuration not stated), the cell number change was -31.3%. Moreover, under setting [1], the AC50 was 3.26 µM [falling, partial curve]. Also, the AC50 under setting [2] was 3.66 µM [falling, full curve].

On to `COC(=O)c1ccc(N2CCN(C)CC2)c(NC(=O)COc2ccccc2)c1`, for which the cell number change was determined as 3.95%. Further, the AC50 under setting [1] is 4.61 µM [rising, partial curve, poor fit].

In the case of `COc1ccccc1-c1nnc2n1N=C(c1ccc(O)c(O)c1)CS2`, the cell number change is 3.71%.

Turning to `Cc1nnc(Nc2ccc(C(=O)N3CCOCC3)cc2)c2ccccc12`, the cell number change is 12.7%. Besides, the AC50 under setting [2] was 0.731 µM [rising, full curve, poor fit].

For the compound `O=C(Cc1ccccc1)NN1C(=O)/C(=C/c2ccc(C(=O)O)cc2)SC1=S`, the cell number change was 4.89%. Further, under setting [2], the AC50 is 3.26 µM [falling, full curve].

As for `COc1ccc(C(=O)CNc2ccccc2Br)cc1`, the cell number change is 34.2%. The AC50 under setting [1] is 29.1 µM [rising, single point]. Moreover, under setting [2], the AC50 is 0.58 µM [rising, single point].

With `O=C(N/N=C/c1c(F)c(F)c(F)c(F)c1F)c1ccc(Cn2cc(Br)cn2)o1`, the cell number change is -59.1%. Further, under setting [1], the AC50 is 14.6 µM [falling, partial curve]. Moreover, the AC50 under setting [2] was 13 µM [falling, partial curve].

For the compound `CC(=O)C1=C(c2cccc([N+](=O)[O-])c2)N(C(C)=O)n2c(C)nnc2S1`, the cell number change is -49%. Further, the AC50 under setting [1] is 20.6 µM [falling, single point]. For the same compound, the AC50 under setting [2] is 16.4 µM [falling, single point].

For the compound `CC(C)N(CCNCc1nnc(-c2ccccc2)o1)C(C)C`, the cell number change is -45.9%. Moreover, the AC50 under setting [1] was 0.366 µM [falling, full curve, poor fit]. Also, the AC50 under setting [2] is 0.058 µM [falling, full curve].

As to `O=C(NC12CC3CC(CC(C3)C1)C2)c1ccco1`, the cell number change was -26.2%. For the same compound, the AC50 under setting [2] is 10.3 µM [falling, partial curve].

As to `Cc1noc(C)c1CSc1nnc(-c2ccccc2)n1N`, the cell number change is -34.1%. For the same compound, the AC50 under setting [1] is 18.4 µM [falling, single point]. Also, the AC50 under setting [2] is 29.1 µM [rising, single point].

With `CC(=O)Nc1ccc(S(=O)(=O)Nc2nc3ccccc3nc2Nc2ccc(O)cc2)cc1`, the cell number change was -2.13%. The concentration at half-maximal activity (AC50) under setting [2] is 6.51 µM [falling, single point].

Take `CC(C)c1ccc(N=C2NN=C(c3cccs3)CS2)cc1`: the cell number change was 40.7%. In addition, under setting [1], the half-maximal activity concentration (AC50) was 25.9 µM [rising, single point].

As for `COc1cccc2cc(C(=O)NCc3ccc(F)cc3)c(=N)oc12`, the cell number change worked out at 15.3%.

Consider `N#CCC(=O)NNC(=S)NC(=O)C(c1ccccc1)c1ccccc1`, for which the cell number change was -16.6%. Moreover, the AC50 under setting [2] is 0.206 µM [falling, full curve, poor fit].

As to `O=C(CSC1=NS(=O)(=O)c2ccccc2N1)Nc1ccccc1F`, the AC50 under setting [2] was 7.31 µM [falling, partial curve].

For `Cc1nc(-c2ccc(S(=O)(=O)N3CCN(c4ccccc4)CC3)cc2)co1`, the cell number change came out at 24.2%.

As to `Cc1onc(-c2ccccc2Cl)c1C(=O)N1CCCCC1C(=O)O` (configuration not stated), the cell number change stood at 2.84%. Further, under setting [2], the AC50 is 6.51 µM [falling, single point].

Take `O=C(COC(=O)c1ccc(NS(=O)(=O)c2ccc3c(c2)OCCO3)cc1)NC1CCS(=O)(=O)C1` (configuration not stated): the cell number change is -22.1%. Also, under setting [2], the AC50 is 4.61 µM [falling, single point].

As to `COc1ccccc1S(=O)(=O)Nc1cccc(-c2nnc3n2CCCCC3)c1`, the cell number change worked out at 9.93%. The AC50 under setting [2] was 16.4 µM [falling, single point].

Regarding `Cc1ccccc1NC(=S)N1CCOCC1`, the cell number change came out at 1.14%. Besides, the AC50 under setting [2] is 0.116 µM [falling, full curve, poor fit].

For `COc1cc2c(cc1NS(=O)(=O)N1CCCCC1)oc1ccccc12`, the cell number change is 12.2%.

Consider `Cc1ccc2c(c1)c1n[nH]c(=S)nc1n2CCc1ccccc1`, for which the cell number change came to 15.6%. Further, under setting [2], the AC50 is 29.1 µM [rising, single point].

In the case of `COc1ccc(CN(C)Cc2nc3cc(OC)c(OC)cc3c(=O)[nH]2)c(OC)c1`, the cell number change worked out at 139%. Moreover, the AC50 under setting [1] was 29.1 µM [rising, partial curve].

One may read the AC50 as the concentration giving half of the maximal activity seen. A higher AC50 goes with activity only at high concentration.
